PubChem BioAssay AID1224830, NIAID | 2016
The whole screen tested about 18,000 reagents; shown is an unselected part. Over the whole deposit, about 2,900 (16%) got an active call. 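Calls are made per well; low scores hint the gene aids the LPS response, high scores that it dampens it.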 Repeated entries: four replicate wells of each siRNA pool.

Test: 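Regulators of TLR4 signalling towards TNF-alpha in macrophage-like cells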 (primary screen)
System: human THP-1 monocytic leukaemia cells, TNF dual-luciferase reporter clone, PMA-differentiated to macrophage-like cells
Reagent: siRNA pool against human genes, 50 nM
Timing: LPS for 4 h, given about 3 days after siRNA transfection
Challenge: bacterial LPS (TLR4 ligand), 10 ng/ml
Read-out: 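Ratio of firefly to renilla light, scaled to the plate median and expressed as a robust z-score per replicate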
Direction: TNF reporter robust z-score: higher = stronger TNF reporter response to LPS
Rule for the call: 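a well is active when its z-score exceeds 2.8 or falls below -1.5; control wells carry no call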

Target gene	TNF reporter robust z-score	Call
NME2 (GeneID 4831)	-0.94	inactive
NME2 (GeneID 4831)	-0.52	inactive
NME2 (GeneID 4831)	-0.81	inactive
NME2 (GeneID 4831)	0.46	inactive
SYT2 (GeneID 127833)	2.71	inactive
SYT2 (GeneID 127833)	1.47	inactive
SYT2 (GeneID 127833)	0.5	inactive
SYT2 (GeneID 127833)	-0.3	inactive
ACAP3 (GeneID 116983)	-0.44	inactive
ACAP3 (GeneID 116983)	0.14	inactive
ACAP3 (GeneID 116983)	1.54	inactive
ACAP3 (GeneID 116983)	0.91	inactive
CTSK (GeneID 1513)	-0.19	inactive
CTSK (GeneID 1513)	-0.2	inactive
CTSK (GeneID 1513)	-0.9	inactive
CTSK (GeneID 1513)	-0.62	inactive
ENTPD7 (GeneID 57089)	-0.83	inactive
ENTPD7 (GeneID 57089)	-0.47	inactive
ENTPD7 (GeneID 57089)	-0.43	inactive
ENTPD7 (GeneID 57089)	1.18	inactive
GMPR (GeneID 2766)	0.68	inactive
GMPR (GeneID 2766)	0.21	inactive
GMPR (GeneID 2766)	-0.56	inactive
GMPR (GeneID 2766)	0.53	inactive
EBAG9 (GeneID 9166)	-0.5	inactive
EBAG9 (GeneID 9166)	0.39	inactive
EBAG9 (GeneID 9166)	-0.43	inactive
STX3 (GeneID 6809)	-0.44	inactive
STX3 (GeneID 6809)	-0.1	inactive
STX3 (GeneID 6809)	0.56	inactive
STX3 (GeneID 6809)	-0.61	inactive
DDAH1 (GeneID 23576)	-0.72	inactive
DDAH1 (GeneID 23576)	-0.18	inactive
DDAH1 (GeneID 23576)	-0.81	inactive
DDAH1 (GeneID 23576)	-0.4	inactive
RSRC1 (GeneID 51319)	-1.28	inactive
RSRC1 (GeneID 51319)	-1.11	inactive
RSRC1 (GeneID 51319)	-1.24	inactive
RSRC1 (GeneID 51319)	-0.99	inactive
ADAMTS1 (GeneID 9510)	-0.51	inactive
ADAMTS1 (GeneID 9510)	0.74	inactive
ADAMTS1 (GeneID 9510)	0.9	inactive
ADAMTS1 (GeneID 9510)	-0.52	inactive
ZNF433 (GeneID 163059)	8.83	active
ZNF433 (GeneID 163059)	0.94	inactive
ZNF433 (GeneID 163059)	1.46	inactive
ZNF433 (GeneID 163059)	2.03	inactive
RNF103 (GeneID 7844)	-0.84	inactive
RNF103 (GeneID 7844)	2.16	inactive
RNF103 (GeneID 7844)	-0.87	inactive
RNF103 (GeneID 7844)	0.46	inactive
HRH1 (GeneID 3269)	0.25	inactive
HRH1 (GeneID 3269)	1.25	inactive
HRH1 (GeneID 3269)	1.48	inactive
HRH1 (GeneID 3269)	0.96	inactive
CDKL5 (GeneID 6792)	0.51	inactive
CDKL5 (GeneID 6792)	-0.63	inactive
CDKL5 (GeneID 6792)	0.11	inactive
CDKL5 (GeneID 6792)	-1.38	inactive
DCAF7 (GeneID 10238)	-0.73	inactive
DCAF7 (GeneID 10238)	-0.59	inactive
DCAF7 (GeneID 10238)	-0.22	inactive
DCAF7 (GeneID 10238)	-0.39	inactive
LCE2D (GeneID 353141)	-0.41	inactive
LCE2D (GeneID 353141)	1.49	inactive
LCE2D (GeneID 353141)	0.5	inactive
LCE2D (GeneID 353141)	2.88	active
MRPL11 (GeneID 65003)	-0.79	inactive
MRPL11 (GeneID 65003)	-1.21	inactive
MRPL11 (GeneID 65003)	-0.67	inactive
MRPL11 (GeneID 65003)	-0.89	inactive
SYBU (GeneID 55638)	0.85	inactive
SYBU (GeneID 55638)	0.75	inactive
SYBU (GeneID 55638)	1.15	inactive
SYBU (GeneID 55638)	-1.13	inactive
CMYA5 (GeneID 202333)	0.56	inactive
CMYA5 (GeneID 202333)	0.09	inactive
CMYA5 (GeneID 202333)	-0.65	inactive
CMYA5 (GeneID 202333)	0.47	inactive
TRIM54 (GeneID 57159)	-0.86	inactive
TRIM54 (GeneID 57159)	-0.75	inactive
TRIM54 (GeneID 57159)	0	inactive
TRIM54 (GeneID 57159)	-1.8	active
EDDM3A (GeneID 10876)	1.09	inactive
EDDM3A (GeneID 10876)	0.03	inactive
EDDM3A (GeneID 10876)	0.2	inactive
EDDM3A (GeneID 10876)	1	inactive
RPIA (GeneID 22934)	3.98	active
RPIA (GeneID 22934)	1.6	inactive
RPIA (GeneID 22934)	2.05	inactive
RPIA (GeneID 22934)	4.04	active
OR8K3 (GeneID 219473)	0.68	inactive
OR8K3 (GeneID 219473)	-0.06	inactive
OR8K3 (GeneID 219473)	1.57	inactive
CCZ1B (GeneID 221960)	-0.3	inactive
CCZ1B (GeneID 221960)	0.74	inactive
CCZ1B (GeneID 221960)	0.49	inactive
CCZ1B (GeneID 221960)	0.81	inactive
NCF1 (GeneID 653361)	-0.52	inactive
NCF1 (GeneID 653361)	0.05	inactive
NCF1 (GeneID 653361)	1.51	inactive
NCF1 (GeneID 653361)	0.71	inactive
OR11L1 (GeneID 391189)	0	inactive
OR11L1 (GeneID 391189)	0.75	inactive
OR11L1 (GeneID 391189)	-0.5	inactive
OR11L1 (GeneID 391189)	-1.1	inactive
GTF2IRD2 (GeneID 84163)	0.09	inactive
GTF2IRD2 (GeneID 84163)	0.42	inactive
GTF2IRD2 (GeneID 84163)	0.9	inactive
GTF2IRD2 (GeneID 84163)	1.95	inactive
